Results as given in publication PMC8299398.
Where a chain is given by its changes, count along the chain named. Where two headings read alike, the source gives them in different places. Results are given in words; binding and its absence hold for the method and conditions named. Binding seen in cells or lysates may run through a third protein. Some results given as binding are weak or reduced against the parent protein; the word gives no strength. For some of these results: Tags and fused reporters may be left off the sequences shown. Each block holds one molecule with its values, some of them ahead of it.

Sequences of proteins named here, by UniProt entry; tags and fusion partners are left off.
UniProt Q9WTX6: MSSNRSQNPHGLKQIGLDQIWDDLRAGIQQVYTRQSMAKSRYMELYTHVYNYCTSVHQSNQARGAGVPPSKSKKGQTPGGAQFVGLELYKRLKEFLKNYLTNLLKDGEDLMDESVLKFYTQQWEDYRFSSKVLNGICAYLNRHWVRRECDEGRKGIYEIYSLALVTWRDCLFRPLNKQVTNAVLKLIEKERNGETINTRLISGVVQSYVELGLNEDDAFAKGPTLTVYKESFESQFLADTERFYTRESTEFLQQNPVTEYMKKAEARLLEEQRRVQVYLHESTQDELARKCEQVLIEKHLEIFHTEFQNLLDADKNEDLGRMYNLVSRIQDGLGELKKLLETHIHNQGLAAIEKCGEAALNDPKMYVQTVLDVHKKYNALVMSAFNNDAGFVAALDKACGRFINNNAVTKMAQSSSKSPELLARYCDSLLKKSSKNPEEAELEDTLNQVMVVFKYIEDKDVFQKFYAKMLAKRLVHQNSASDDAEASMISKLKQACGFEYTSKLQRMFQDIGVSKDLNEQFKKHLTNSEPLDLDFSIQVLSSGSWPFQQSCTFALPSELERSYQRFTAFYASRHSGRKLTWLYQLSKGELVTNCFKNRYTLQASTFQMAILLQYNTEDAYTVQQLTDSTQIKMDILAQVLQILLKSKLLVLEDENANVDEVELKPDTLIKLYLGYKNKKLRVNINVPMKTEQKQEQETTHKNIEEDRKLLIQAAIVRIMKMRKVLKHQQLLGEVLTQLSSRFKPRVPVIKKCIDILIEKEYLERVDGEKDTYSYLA
UniProt P49841: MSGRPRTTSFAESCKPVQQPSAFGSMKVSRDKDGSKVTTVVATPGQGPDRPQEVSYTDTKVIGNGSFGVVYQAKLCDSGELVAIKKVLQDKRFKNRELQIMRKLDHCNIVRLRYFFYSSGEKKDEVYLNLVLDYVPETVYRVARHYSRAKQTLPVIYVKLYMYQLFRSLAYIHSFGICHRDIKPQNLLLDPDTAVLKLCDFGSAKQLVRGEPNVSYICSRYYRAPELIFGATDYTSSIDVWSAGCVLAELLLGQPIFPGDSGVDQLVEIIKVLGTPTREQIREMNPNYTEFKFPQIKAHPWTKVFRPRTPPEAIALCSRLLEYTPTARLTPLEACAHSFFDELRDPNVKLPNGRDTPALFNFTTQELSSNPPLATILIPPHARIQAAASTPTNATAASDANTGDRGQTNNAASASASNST

Experiments:
VenN-FBXL21T33A = biological target: T1, VenN-FBXL21T33A (UniProt Q8BFZ4); test: split reporter; BiFC with Venus N- and C-terminal fragments in transfected 293T cells, fixed 2 days after transfection, Venus emission 528 nm; with scramble shRNA or GSK-3β shRNA co-transfection
T1 sequence: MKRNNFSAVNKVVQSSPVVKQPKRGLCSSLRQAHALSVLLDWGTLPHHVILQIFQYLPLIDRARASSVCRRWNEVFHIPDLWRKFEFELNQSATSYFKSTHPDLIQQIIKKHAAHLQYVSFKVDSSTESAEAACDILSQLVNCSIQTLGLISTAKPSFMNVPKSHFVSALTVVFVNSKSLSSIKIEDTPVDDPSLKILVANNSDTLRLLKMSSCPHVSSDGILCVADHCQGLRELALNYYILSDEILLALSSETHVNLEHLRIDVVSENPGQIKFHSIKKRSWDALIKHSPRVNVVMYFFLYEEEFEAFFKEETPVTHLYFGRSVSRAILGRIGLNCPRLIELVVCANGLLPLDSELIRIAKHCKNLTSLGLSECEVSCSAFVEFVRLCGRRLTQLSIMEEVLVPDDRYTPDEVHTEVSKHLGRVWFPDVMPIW

[1] = biological target: T2, VenN-FBXL21 (Venus N terminus fused with Fbxl21) (UniProt Q8BFZ4); test: as above
T2 sequence: T1 sequence with A33T

FLAG-TCAP = biological target: T3, FLAG-TCAP (UniProt O70548); test: co-IP; 293T cells co-transfected with FLAG- and HA-tagged constructs; immunoprecipitation with anti-FLAG antibody (M2 agarose beads)
T3 sequence: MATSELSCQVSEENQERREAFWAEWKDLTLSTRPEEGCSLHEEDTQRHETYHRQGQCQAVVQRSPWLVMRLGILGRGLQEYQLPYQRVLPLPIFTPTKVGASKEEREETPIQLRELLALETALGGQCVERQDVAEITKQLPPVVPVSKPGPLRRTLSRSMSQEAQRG

FLAG-FBXL21 [2] = biological target: T4, FLAG-FBXL21 (UniProt Q8BFZ4); test: as above
T4 sequence: T1 sequence with A33T

[3] = biological target: T5, FBXL21 (endogenous, mouse gastrocnemius muscle) (mouse (endogenous in gastrocnemius muscle)) (UniProt Q8BFZ4); test: co-IP; gastrocnemius muscles of wild-type C57BL/6 mice collected every 4 h over one 12 h:12 h light:dark cycle
T5 sequence: T1 sequence with A33T

FLAG-FBXL21 [4] = biological target: T4, FLAG-FBXL21; test: co-IP; 293T cells co-transfected with FLAG- and HA-tagged constructs; immunoprecipitation with anti-FLAG antibody (M2 agarose beads); remark: listed apart in the source

binding (VenN-FBXL21T33A): binds
binding [1]: binds
Molecule: VenC-Cullin1 (from UniProt Q9WTX6 1-776)

binding [1]: binds
B1: VenC-TCAP (Venus C terminus fused with TCAP) (protein, UniProt O70548 1-167)
chain: T3 sequence

binding [3]: binds
B2: TCAP (endogenous, mouse gastrocnemius muscle) (protein, UniProt O70548 1-167)
chain: T3 sequence

Continued, molecule first:

Molecule: HA-GSK-3β (from UniProt P49841 1-420) (enzyme)
binding (FLAG-TCAP): binds
binding (FLAG-FBXL21 [2]): binds

B3: hemagglutinin (HA)-TCAP (protein, UniProt O70548 1-167)
chain: T3 sequence
binding (FLAG-FBXL21 [4]): binds
